The results in this text go back to publication PMC9443943.

Results are given in words; binding and its absence hold for the method and conditions named. Binding seen in cells or lysates may run through a third protein. A result given as binding can be weak or reduced; the word gives no strength.

In this assay the target is mouse Tm4sf5-Strep on sEVs from AML12 cells (AML12-sEV^Tm4sf5-Strep) (mouse). As to the kind of experiment: co-IP; sEVs from AML12 cells stably transfected with Tm4sf5-Strep (with or without 1 uM TSAHC pretreatment) given to differentiated primary WT BAT cells; extracts precipitated with Strep-agarose beads; blots with Strep-MAB-classic-HRP and Glut4 antibodies.

B1: Glut4 of differentiated primary mouse brown adipose (BAT) cells (protein, UniProt P14142 1-509)
chain: MPSGFQQIGSDDGEPPRQRVTGTLVLAVFSAVLGSLQFGYNIGVINAPQKVIEQSYNATWLGRQGPGGPDSIPQGTLTTLWALSVAIFSVGGMISSFLIGIISQWLGRKRAMLANNVLAVLGGALMGLANAAASYEILILGRFLIGAYSGLTSGLVPMYVGEIAPTHLRGALGTLNQLAIVIGILVAQVLGLESMLGTATLWPLLLALTVLPALLQLILLPFCPESPRYLYIIRNLEGPARKSLKRLTGWADVSDALAELKDEKRKLERERPMSLLQLLGSRTHRQPLIIAVVLQLSQQLSGINAVFYYSTSIFESAGVGQPAYATIGAGVVNTVFTLVSVLLVERAGRRTLHLLGLAGMCGCAILMTVALLLLERVPAMSYVSIVAIFGFVAFFEIGPGPIPWFIVAELFSQGPRPAAMAVAGFSNWTCNFIVGMGFQYVADAMGPYVFLLFAVLLLGFFIFTFLKVPETRGRTFDQISAAFRRTPSLLEQEVKPSTELEYLGPDEND
Regarding B1, the binding entry is “binds”.
